Assay results reported in article PMC7407560.
Changes are numbered by the printed parent chain. Names and notes keep the numbering of the source. These are yes or no findings as the source states them, for the method shown. For some of these results: Binding seen in cells or lysates may run through a third protein. Some results given as binding are weak or reduced against the parent protein; the word gives no strength. For some of these results: Sequences can lack the tags named with a protein. Blank lines part the entries; values can stand above or below the molecule they belong to.

The chains behind the UniProt entries cited, without tags or fusion partners. Where a name states a change or a piece, a line headed by the entry shows the natural chain unless it says otherwise.
UniProt P02453: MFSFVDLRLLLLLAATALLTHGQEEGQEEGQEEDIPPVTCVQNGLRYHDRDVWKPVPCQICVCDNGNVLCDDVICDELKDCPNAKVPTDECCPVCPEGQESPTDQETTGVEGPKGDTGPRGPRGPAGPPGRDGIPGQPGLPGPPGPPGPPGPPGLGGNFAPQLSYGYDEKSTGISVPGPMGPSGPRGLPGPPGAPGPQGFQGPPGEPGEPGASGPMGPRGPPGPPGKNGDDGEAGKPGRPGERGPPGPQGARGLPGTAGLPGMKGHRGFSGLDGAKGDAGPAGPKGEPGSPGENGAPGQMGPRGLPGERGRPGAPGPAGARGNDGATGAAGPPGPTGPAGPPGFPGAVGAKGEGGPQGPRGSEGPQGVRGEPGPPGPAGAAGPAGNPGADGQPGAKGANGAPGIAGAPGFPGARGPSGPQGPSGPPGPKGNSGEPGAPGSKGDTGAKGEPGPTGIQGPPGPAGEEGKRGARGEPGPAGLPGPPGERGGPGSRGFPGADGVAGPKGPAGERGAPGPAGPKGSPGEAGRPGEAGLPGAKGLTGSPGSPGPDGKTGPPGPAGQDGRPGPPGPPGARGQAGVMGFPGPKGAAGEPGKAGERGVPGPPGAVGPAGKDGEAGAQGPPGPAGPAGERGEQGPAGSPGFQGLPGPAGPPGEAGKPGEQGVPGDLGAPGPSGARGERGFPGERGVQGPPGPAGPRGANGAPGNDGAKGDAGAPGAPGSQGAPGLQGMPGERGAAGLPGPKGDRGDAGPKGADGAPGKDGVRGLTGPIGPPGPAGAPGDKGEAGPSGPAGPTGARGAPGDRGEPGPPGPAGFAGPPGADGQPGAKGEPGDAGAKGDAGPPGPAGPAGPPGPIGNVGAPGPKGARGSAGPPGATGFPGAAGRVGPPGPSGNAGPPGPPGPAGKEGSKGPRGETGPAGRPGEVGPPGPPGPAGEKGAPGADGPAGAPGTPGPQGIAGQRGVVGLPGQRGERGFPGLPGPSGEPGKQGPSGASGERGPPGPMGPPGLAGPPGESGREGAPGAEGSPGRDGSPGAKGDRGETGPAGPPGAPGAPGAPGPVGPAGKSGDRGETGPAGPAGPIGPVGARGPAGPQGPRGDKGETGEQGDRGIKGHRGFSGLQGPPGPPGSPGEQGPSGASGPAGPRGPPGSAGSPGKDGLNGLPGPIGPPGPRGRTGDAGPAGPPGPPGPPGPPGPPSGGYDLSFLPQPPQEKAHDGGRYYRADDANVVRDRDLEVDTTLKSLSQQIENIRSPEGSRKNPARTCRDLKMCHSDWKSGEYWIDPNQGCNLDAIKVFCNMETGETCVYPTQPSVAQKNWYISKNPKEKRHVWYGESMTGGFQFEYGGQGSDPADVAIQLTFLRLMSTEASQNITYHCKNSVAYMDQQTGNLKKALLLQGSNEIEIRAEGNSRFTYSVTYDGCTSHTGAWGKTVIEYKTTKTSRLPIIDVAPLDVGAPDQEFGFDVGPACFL
UniProt P02465: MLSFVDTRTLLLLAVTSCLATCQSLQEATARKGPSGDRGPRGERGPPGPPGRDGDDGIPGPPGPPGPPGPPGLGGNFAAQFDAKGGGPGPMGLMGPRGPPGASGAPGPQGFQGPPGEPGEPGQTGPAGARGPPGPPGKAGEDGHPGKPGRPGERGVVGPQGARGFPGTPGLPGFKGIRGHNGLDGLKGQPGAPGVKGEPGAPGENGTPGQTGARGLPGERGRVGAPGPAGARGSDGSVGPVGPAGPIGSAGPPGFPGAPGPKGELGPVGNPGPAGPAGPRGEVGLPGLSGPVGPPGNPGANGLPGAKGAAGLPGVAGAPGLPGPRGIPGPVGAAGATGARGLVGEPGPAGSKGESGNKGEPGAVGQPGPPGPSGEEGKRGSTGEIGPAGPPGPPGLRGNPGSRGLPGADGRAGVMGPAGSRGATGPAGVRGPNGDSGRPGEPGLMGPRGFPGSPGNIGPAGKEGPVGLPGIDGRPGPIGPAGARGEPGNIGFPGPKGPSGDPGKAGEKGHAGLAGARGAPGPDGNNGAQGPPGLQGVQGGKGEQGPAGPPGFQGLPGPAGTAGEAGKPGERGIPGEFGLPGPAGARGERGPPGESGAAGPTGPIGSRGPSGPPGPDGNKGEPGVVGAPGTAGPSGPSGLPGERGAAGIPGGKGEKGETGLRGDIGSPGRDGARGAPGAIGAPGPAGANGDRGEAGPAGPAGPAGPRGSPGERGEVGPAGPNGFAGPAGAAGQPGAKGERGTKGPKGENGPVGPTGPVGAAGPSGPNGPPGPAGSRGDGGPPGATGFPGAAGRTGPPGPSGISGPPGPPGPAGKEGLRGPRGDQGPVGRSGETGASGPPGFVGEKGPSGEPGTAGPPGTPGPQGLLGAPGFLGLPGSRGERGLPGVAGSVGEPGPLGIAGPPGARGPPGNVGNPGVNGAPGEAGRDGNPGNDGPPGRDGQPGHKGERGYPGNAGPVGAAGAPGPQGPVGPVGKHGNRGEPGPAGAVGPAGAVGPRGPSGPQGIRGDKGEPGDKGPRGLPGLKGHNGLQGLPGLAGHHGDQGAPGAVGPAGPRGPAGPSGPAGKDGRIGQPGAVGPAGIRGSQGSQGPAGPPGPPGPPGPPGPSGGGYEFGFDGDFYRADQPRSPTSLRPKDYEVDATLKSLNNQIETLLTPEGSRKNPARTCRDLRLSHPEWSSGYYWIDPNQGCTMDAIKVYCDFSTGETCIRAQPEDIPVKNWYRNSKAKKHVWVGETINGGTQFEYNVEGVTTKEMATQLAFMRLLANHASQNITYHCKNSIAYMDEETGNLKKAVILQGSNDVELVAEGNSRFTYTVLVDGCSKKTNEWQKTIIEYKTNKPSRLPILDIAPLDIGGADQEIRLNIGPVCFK
UniProt P97434: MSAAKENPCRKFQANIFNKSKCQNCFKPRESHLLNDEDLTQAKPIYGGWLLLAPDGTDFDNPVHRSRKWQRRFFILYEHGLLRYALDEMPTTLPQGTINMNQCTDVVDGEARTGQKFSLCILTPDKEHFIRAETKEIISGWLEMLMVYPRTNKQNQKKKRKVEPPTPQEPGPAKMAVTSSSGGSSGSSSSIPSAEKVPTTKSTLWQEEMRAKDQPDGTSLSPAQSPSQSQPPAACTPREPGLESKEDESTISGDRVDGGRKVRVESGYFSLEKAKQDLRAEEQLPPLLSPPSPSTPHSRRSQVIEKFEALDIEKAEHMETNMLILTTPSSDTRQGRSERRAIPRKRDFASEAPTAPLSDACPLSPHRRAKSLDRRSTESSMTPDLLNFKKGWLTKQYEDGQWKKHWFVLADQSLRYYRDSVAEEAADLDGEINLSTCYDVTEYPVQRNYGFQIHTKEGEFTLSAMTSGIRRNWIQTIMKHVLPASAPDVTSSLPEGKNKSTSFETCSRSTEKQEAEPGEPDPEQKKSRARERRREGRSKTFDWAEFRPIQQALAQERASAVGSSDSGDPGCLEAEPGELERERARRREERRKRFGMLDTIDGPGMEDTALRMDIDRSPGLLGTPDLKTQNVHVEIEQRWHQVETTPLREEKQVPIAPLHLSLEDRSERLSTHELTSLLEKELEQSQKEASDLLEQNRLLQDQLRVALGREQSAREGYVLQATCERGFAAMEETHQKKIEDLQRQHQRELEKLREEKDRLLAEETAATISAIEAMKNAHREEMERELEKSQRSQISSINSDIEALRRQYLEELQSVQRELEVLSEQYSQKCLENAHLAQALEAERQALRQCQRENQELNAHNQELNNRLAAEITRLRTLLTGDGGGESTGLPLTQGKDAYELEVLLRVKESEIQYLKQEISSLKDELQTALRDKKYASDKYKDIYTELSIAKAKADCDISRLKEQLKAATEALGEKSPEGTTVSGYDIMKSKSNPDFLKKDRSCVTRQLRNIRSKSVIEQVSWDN

Columns and labels:
[1] = biological target: fibrillar bovine type I collagen on magnetite beads (bovine) (UniProt P02453+P02465); test: isolation of collagen bead-associated adhesion complexes; fibrillar collagen-coated magnetite beads on the dorsal surface of GD25 OE or OE MRIP-/- cells for 1 or 2 h; extraction in 0.5% Triton X-100 cytoskeleton buffer, magnetic separation, immunoblot; only the target purified
[2] = biological target: DDR1 (b-isoform) stably overexpressed in GD25 cells (GD25 OE) (UniProt Q08345); test: co-IP; lysates in 20 mM Tris pH 7.5, 1% Triton X-100, 0.1% SDS, 150 mM CaCl (so in the source); Dyna-beads Protein G; cells cultured on fibrillar collagen or fibronectin; GD25 OE and OE MRIP-/- cells; immunoblot
[3] = biological target: T1, mouse DDR1b-YFP (full-length kinase-active isoform) (mouse) (UniProt Q03146); test: FRET or BRET; acceptor photobleaching FRET in cells co-transfected with CFP donor and YFP acceptor, cultured on collagen or fibronectin; GD25 WT or WT MRIP-/- cells
T1 sequence: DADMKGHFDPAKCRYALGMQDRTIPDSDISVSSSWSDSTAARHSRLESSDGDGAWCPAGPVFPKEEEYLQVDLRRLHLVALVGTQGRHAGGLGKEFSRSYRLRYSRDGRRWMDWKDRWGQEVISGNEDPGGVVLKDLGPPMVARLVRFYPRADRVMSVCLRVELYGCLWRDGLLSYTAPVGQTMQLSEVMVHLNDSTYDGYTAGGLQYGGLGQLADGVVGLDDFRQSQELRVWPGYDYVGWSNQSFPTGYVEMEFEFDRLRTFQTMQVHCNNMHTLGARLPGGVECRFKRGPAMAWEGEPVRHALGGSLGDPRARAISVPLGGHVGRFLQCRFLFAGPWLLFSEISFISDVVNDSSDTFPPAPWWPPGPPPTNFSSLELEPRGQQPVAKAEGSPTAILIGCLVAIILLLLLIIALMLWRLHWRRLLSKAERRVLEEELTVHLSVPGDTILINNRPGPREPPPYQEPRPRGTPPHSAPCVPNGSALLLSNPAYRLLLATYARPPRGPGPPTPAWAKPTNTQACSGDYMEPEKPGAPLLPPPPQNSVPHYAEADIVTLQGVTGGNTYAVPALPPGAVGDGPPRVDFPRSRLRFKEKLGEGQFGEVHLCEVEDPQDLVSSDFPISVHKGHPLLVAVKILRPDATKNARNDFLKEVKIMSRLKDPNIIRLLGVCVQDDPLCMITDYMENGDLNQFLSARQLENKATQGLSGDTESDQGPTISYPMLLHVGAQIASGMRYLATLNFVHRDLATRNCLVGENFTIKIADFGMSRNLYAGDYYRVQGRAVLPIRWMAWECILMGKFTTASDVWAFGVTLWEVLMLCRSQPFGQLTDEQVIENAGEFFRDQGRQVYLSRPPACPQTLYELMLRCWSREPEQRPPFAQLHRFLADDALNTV

binding [1]: binds
Molecule: DDR1 (b-isoform) stably overexpressed in GD25 cells (GD25 OE) (from UniProt Q08345-1 19-913) (receptor)

binding [2]: binds
Molecule: myosin phosphatase Rho-interacting protein (MRIP) (from UniProt P97434 1-1024)

binding [3]: binds
B1: mouse DDR1b-YFP (full-length kinase-active isoform) (receptor, UniProt Q03146 20-911)
chain: T1 sequence

binding [3]: binds
B2: mouse DDR1b K653A-YFP (point mutation in ATP binding site) (receptor, UniProt Q03146 20-911)
chain: T1 sequence with K634A
